Laboratory results published in paper PMC12398889.
These are yes or no findings as the source states them, for the method shown. In cells and extracts the contact can be indirect. Some results given as binding are weak or reduced against the parent protein; the word gives no strength. For some assays here: Where a sequence is shown, tags or fusion partners need not be part of it.

T1: Flag-CPNE5 expressed from AAV9-OE-Cpne5 (entire coding region of mouse CPNE5, cTNT promoter) (mouse) (UniProt Q8JZW4)
T1 sequence: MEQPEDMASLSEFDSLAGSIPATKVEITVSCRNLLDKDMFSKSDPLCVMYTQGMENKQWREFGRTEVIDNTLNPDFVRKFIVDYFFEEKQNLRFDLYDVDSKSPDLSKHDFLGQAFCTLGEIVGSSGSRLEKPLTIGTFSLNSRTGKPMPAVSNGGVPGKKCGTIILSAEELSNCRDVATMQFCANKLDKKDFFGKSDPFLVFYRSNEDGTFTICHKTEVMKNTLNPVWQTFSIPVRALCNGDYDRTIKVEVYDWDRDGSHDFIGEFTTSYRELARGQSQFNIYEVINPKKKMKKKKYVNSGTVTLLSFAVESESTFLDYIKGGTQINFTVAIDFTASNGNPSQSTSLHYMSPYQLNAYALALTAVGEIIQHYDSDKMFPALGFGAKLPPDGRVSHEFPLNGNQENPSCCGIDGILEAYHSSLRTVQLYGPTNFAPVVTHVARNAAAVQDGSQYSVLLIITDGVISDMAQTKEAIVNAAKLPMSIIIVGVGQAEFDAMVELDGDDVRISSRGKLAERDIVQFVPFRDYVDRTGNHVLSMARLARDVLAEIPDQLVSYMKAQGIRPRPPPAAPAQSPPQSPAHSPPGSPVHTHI

T2: Flag-CPNE5 (mouse CPNE5 cDNA with a Flag tag in pcDNA3.1(+)) (mouse) (UniProt Q8JZW4)
T2 sequence: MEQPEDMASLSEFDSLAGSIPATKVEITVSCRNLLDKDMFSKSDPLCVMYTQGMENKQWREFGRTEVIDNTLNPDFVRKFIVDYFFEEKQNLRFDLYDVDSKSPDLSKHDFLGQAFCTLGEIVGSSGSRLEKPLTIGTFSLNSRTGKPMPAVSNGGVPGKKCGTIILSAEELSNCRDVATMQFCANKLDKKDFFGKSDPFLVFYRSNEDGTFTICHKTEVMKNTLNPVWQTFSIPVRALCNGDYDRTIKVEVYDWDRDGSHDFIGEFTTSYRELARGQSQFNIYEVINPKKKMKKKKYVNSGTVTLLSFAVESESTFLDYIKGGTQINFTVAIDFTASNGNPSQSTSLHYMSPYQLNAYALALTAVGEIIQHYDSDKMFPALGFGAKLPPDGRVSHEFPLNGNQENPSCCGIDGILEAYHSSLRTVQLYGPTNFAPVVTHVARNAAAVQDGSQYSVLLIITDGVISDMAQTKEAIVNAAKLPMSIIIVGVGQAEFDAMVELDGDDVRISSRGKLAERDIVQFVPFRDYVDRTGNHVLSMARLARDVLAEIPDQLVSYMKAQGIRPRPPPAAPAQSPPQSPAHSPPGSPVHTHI

T3: FAS receptor (mouse (endogenous in neonatal mouse cardiomyocytes and mouse heart)), P25446
T3 chain: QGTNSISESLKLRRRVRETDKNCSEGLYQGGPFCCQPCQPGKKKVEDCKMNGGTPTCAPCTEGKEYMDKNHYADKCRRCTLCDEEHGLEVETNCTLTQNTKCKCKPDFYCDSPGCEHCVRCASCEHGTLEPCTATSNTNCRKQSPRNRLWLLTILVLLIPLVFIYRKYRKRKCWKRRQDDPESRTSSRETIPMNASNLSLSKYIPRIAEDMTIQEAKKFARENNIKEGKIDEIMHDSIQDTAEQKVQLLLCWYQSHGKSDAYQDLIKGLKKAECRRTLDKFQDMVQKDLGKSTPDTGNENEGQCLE


What was measured:
[1] = target: T1, Flag-CPNE5 expressed from AAV9-OE-Cpne5 (entire coding region of mouse CPNE5, cTNT promoter) (mouse); assay: co-IP; CPNE5 overexpressing mouse tissues (Figure S4); precipitating antibody not given
[2] = target: T2, Flag-CPNE5 (mouse CPNE5 cDNA with a Flag tag in pcDNA3.1(+)) (mouse); assay: co-IP; IP with anti-FLAG antibody on Protein A/G magnetic beads, 4°C 2 h, lysate of NMCMs transfected with Flag-Cpne5; immunoblot; IgG as negative control; also with FASL added to the cells
[3] = target: T3, FAS receptor (mouse (endogenous in …)); assay: co-IP; IP with anti-FAS antibody on Protein A/G magnetic beads, 4°C 2 h, lysate of NMCMs transfected with Flag-Cpne5; immunoblot; IgG as negative control; also with FASL added to the cells; settings: remark: other sources report otherwise

Row | Binder | binding [1] | binding [2] | binding [3]
1 | FAS receptor (receptor, UniProt P25446 22-327) QGTNSISESLKLRRRVRETDKNCSEGLYQGGPFCCQPCQPGKKKVEDCKMNGGTPTCAPCTEGKEYMDKNHYADKCRRCTLCDEEHGLEVETNCTLTQNTKCKCKPDFYCDSPGCEHCVRCASCEHGTLEPCTATSNTNCRKQSPRNRLWLLTILVLLIPLVFIYRKYRKRKCWKRRQDDPESRTSSRETIPMNASNLSLSKYIPRIAEDMTIQEAKKFARENNIKEGKIDEIMHDSIQDTAEQKVQLLLCWYQSHGKSDAYQDLIKGLKKAECRRTLDKFQDMVQKDLGKSTPDTGNENEGQCLE | binds | binds | 
2 | CALCOCO1 (protein, UniProt Q8CGU1 1-691) MEESSLSRAPSRGGVNFLNVARTYIPNTKVECHYTLPPGTMPSASDWIGIFKVEAACVRDYHTFVWSSVPESTTDGSPTHASVQFQASYLPKPGAQLYQFRYVNRQGRVCGQSPPFQFREPRPMDELVTLEEADGGSDILLVVPKATVLQNQLDESQQERNDLMQLKLQLEDQVTELRSRVQELEAALATARQEHSELTEQYKGLSRSHGELSEERDILSQQQGDHVARILELEDDIQTMSDKVLMKEVELDRVRDTVKALTREQEKLLRQLKEFQADKEQSEAELQTVREENCCLNTELEEAKSRQEEQGAQVQRLKDKLAHMKDTLGQAQQKVAELEPLKEQLRGVQELAASSQQKAALLGEELASAAGARDRTIAELHRSRLEVAEVNGRLAELSLHMKEEKCQWSKERTGLLQSMEAEKDKILKLSAEILRLEKTVQEERTQSHVFKTELAREKDSSLVQLSESKRELTELRSALRVLQKEKEQLQTEKQELLEYMRKLEARLEKVADEKWTEDAATEDEEATAGLSCPASLTDSEDESPEDMRLPSYGLCESGNTSSSPPGPREPSSLVVINQPAPIAPQFSGPGEASSSDSEAEDEKSVLMAAVQSGGEEASLLLPELGSAFYDVASAFTVSSLSEASPGVPANPPWKECPICKERFPAESDKDALEGHMDGHFFFSTQDPFTFE |  | binds | 
3 | Fas-associated death domain (FADD) (protein, UniProt Q61160 1-205) MDPFLVLLHSLSGSLSGNDLMELKFLCRERVSKRKLERVQSGLDLFTVLLEQNDLERGHTGLLRELLASLRRHDLLQRLDDFEAGTATAAPPGEADLQVAFDIVCDNVGRDWKRLARELKVSEAKMDGIEEKYPRSLSERVRESLKVWKNAEKKNASVAGLVKALRTCRLNLVADLVEEAQESVSKSENMSPVLRDSTVSSSETP |  | no binding | 
4 | Fas-associated death domain (FADD), Q61160 1-205 (protein) MDPFLVLLHSLSGSLSGNDLMELKFLCRERVSKRKLERVQSGLDLFTVLLEQNDLERGHTGLLRELLASLRRHDLLQRLDDFEAGTATAAPPGEADLQVAFDIVCDNVGRDWKRLARELKVSEAKMDGIEEKYPRSLSERVRESLKVWKNAEKKNASVAGLVKALRTCRLNLVADLVEEAQESVSKSENMSPVLRDSTVSSSETP |  |  | no binding
